Measurements published in publication PMC5716718.

Target: AMP-activated protein kinase alpha (AMPKα) (human (endogenous in DU145 and PC-3))
Experiment: co-IP; purified ectopic expression PDLIM5 incubated at 4°C for 2 h with DU145 and PC-3 cell lysate (30 mM MOPS pH 7.5, 150 mM NaCl, 0.5% Triton-X100, 1.5 mM MgCl2, 1 mM EGTA, 1 mM DTT); precipitated with AMPKα antibody and Protein A agarose, IgG as control; Western blot for PDLIM5 and AMPKα; only the binder purified

B1: PDZ and LIM domain 5 (PDLIM5) (protein, UniProt Q96HC4-1 1-596)
chain: MSNYSVSLVGPAPWGFRLQGGKDFNMPLTISSLKDGGKAAQANVRIGDVVLSIDGINAQGMTHLEAQNKIKGCTGSLNMTLQRASAAPKPEPVPVQKGEPKEVVKPVPITSPAVSKVTSTNNMAYNKAPRPFGSVSSPKVTSIPSPSSAFTPAHATTSSHASPSPVAAVTPPLFAASGLHANANLSADQSPSALSAGKTAVNVPRQPTVTSVCSETSQELAEGQRRGSQGDSKQQNGPPRKHIVERYTEFYHVPTHSDASKKRLIEDTEDWRPRTGTTQSRSFRILAQITGTEHLKESEADNTKKANNSQEPSPQLASSVASTRSMPESLDSPTSGRPGVTSLTAAAAFKPVGSTGVIKSPSWQRPNQGVPSTGRISNSATYSGSVAPANSALGQTQPSDQDTLVQRAEHIPAGKRTPMCAHCNQVIRGPFLVALGKSWHPEEFNCAHCKNTMAYIGFVEEKGALYCELCYEKFFAPECGRCQRKILGEVISALKQTWHVSCFVCVACGKPIRNNVFHLEDGEPYCETDYYALFGTICHGCEFPIEAGDMFLEALGYTWHDTCFVCSVCCESLEGQTFFSKKDKPLCKKHAHSVNF
- binding: binds

No constants are given. Whether binding was seen depends on the method and setting. In cells and extracts the contact can be indirect. A result given as binding can be weak or reduced; the word gives no strength.
